Laboratory results taken from the supplement of paper PMC10849652.
The list shows a part of the results.

Amino acid sequences for entries named in this document (tags omitted). A change or cut given only in a name is not applied to a line headed by its entry.
UniProt O43257, whole entry, looked up: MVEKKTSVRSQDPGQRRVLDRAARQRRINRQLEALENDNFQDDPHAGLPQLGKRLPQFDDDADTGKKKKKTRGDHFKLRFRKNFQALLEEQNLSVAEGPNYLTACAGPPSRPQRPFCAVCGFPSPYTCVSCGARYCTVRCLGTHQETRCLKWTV
UniProt Q6ZN55: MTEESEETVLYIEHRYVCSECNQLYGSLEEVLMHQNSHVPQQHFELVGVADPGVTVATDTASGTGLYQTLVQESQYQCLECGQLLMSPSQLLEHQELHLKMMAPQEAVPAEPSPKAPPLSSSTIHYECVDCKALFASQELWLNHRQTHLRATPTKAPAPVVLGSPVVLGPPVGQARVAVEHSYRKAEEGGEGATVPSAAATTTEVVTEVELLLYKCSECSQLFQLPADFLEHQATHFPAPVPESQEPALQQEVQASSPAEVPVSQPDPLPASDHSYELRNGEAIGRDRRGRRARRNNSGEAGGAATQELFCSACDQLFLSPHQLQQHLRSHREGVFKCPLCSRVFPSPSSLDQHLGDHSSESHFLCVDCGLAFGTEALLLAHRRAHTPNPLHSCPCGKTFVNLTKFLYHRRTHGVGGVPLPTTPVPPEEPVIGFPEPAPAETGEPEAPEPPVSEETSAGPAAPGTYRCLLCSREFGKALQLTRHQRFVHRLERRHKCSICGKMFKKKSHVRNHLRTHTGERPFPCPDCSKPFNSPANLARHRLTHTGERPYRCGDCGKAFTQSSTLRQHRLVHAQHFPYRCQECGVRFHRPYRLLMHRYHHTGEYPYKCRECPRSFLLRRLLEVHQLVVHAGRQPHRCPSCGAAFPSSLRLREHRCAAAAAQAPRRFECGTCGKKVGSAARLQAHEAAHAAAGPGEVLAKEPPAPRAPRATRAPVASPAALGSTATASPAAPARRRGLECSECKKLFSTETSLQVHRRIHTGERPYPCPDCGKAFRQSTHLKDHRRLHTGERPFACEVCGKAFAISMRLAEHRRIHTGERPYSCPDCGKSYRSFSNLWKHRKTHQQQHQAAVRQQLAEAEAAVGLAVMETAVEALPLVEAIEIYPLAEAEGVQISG
UniProt Q96K58: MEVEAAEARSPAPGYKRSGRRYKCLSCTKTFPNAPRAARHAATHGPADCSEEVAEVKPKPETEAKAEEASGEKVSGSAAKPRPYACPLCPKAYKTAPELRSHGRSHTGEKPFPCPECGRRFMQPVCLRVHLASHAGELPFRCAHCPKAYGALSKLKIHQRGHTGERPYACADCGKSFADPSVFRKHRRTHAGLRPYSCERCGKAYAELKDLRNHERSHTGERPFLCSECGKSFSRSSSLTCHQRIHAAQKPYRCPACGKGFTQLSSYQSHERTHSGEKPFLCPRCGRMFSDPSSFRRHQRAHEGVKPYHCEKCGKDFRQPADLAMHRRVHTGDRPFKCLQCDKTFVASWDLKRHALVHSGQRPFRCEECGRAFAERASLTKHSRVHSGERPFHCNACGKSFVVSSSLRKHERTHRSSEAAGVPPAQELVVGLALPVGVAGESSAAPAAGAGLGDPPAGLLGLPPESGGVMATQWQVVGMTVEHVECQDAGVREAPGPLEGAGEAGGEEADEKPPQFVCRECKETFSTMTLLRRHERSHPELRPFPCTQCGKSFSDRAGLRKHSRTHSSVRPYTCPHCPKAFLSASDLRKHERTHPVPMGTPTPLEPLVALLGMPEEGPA
UniProt Q19AV6: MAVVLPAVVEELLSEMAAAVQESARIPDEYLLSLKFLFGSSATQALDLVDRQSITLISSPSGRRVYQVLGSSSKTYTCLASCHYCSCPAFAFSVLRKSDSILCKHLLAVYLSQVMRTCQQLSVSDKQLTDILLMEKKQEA
UniProt Q8N720: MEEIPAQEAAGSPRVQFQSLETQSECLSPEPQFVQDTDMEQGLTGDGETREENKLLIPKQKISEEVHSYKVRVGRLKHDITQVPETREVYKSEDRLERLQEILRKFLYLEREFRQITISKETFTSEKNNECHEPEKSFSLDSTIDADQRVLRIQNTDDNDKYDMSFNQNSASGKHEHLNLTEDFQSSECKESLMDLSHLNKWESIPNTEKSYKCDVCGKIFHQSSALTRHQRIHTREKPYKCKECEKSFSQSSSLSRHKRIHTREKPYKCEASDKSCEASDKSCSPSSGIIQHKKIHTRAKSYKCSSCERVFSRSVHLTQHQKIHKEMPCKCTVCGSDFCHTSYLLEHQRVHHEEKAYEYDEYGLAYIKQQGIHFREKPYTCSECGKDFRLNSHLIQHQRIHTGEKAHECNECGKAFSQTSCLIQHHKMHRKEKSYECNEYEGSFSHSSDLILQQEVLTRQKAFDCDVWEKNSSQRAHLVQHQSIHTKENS
UniProt Q9NW07: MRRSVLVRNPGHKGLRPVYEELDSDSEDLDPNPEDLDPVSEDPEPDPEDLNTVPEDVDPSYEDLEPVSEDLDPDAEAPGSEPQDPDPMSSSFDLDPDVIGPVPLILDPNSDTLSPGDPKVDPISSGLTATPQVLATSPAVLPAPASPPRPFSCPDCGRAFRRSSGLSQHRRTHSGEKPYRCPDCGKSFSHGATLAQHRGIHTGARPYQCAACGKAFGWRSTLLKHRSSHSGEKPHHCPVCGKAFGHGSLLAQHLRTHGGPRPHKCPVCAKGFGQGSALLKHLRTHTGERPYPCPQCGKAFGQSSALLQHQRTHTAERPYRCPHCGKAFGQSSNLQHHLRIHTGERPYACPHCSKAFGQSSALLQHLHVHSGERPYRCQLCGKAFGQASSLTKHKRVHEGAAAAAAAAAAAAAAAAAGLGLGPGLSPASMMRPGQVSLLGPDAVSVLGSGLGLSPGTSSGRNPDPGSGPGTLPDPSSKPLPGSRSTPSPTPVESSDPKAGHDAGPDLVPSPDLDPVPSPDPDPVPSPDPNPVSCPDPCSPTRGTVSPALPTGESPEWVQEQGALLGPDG
UniProt Q2TB10: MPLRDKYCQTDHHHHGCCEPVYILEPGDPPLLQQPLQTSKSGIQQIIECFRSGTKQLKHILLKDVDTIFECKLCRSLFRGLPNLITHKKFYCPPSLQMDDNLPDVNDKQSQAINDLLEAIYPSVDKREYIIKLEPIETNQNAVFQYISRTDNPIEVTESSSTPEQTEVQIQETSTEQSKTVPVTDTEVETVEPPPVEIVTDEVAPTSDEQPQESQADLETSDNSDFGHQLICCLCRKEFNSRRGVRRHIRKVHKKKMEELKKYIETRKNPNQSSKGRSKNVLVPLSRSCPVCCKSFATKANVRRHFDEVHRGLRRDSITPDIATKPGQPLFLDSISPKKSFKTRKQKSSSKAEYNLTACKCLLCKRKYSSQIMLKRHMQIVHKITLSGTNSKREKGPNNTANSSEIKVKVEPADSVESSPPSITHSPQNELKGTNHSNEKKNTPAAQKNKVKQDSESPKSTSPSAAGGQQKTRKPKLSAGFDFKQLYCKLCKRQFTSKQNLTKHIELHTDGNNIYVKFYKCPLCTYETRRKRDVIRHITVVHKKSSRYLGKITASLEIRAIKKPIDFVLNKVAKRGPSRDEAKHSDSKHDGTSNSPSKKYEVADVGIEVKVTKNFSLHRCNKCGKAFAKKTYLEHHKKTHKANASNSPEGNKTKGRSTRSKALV
UniProt Q6IQ21: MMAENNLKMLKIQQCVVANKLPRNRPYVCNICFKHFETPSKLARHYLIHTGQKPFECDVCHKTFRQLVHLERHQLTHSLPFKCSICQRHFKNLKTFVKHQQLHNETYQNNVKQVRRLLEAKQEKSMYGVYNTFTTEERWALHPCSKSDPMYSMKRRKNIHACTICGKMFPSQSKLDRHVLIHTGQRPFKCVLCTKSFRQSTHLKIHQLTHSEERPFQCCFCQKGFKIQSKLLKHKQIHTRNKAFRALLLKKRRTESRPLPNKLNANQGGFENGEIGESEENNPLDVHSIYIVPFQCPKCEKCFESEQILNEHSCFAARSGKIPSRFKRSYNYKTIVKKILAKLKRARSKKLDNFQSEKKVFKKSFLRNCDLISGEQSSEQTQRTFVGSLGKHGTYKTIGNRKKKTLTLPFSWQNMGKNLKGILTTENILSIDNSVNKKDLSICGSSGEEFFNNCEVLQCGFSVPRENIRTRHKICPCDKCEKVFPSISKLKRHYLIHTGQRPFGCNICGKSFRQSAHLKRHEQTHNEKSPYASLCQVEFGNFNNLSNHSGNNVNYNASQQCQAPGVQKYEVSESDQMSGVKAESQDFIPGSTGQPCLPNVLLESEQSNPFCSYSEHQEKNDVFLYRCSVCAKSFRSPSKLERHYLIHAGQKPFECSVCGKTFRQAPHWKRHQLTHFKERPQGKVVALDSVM
UniProt Q96IQ9: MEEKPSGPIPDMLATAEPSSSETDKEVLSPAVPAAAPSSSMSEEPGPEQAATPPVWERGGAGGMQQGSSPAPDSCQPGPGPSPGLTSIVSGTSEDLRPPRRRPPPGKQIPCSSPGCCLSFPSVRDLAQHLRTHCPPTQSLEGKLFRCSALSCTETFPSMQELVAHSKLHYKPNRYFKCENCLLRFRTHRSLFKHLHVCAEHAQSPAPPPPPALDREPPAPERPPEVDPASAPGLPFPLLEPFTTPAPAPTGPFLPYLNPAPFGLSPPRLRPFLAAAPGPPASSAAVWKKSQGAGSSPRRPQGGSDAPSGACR
UniProt Q9Y2X9: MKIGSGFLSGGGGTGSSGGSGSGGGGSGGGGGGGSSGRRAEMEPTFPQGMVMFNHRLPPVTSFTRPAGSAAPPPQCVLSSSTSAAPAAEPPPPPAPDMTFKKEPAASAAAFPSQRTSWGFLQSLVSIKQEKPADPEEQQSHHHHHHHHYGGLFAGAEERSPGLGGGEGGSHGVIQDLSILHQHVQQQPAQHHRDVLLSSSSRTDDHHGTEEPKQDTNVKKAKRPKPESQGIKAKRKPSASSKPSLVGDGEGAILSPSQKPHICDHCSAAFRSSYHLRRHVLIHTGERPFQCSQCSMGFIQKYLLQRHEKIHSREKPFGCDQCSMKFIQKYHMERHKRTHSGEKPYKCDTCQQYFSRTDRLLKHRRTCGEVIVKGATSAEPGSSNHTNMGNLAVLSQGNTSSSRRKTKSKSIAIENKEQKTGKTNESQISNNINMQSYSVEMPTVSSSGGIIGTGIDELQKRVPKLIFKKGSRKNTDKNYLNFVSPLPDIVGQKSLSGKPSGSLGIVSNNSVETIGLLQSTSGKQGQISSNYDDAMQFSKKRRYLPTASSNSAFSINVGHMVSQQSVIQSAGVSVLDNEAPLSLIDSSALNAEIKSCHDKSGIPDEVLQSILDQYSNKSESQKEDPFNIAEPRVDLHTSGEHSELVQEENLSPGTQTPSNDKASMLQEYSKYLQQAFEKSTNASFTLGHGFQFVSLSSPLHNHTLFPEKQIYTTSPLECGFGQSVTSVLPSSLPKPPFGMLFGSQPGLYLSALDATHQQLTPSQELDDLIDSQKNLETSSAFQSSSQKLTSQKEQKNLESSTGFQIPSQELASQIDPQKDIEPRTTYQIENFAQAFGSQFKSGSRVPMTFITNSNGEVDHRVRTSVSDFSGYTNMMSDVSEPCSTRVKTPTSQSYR
UniProt Q9UJN7: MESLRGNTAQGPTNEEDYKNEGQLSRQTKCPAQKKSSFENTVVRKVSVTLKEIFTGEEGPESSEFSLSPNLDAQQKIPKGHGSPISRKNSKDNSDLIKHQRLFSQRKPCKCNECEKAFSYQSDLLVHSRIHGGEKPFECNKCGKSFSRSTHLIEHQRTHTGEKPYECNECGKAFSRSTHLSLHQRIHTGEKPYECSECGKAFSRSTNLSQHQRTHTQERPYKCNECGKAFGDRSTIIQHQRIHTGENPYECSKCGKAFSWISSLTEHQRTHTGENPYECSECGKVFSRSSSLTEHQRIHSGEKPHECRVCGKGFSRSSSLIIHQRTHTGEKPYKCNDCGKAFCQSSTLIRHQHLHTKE
UniProt Q9Y2D9: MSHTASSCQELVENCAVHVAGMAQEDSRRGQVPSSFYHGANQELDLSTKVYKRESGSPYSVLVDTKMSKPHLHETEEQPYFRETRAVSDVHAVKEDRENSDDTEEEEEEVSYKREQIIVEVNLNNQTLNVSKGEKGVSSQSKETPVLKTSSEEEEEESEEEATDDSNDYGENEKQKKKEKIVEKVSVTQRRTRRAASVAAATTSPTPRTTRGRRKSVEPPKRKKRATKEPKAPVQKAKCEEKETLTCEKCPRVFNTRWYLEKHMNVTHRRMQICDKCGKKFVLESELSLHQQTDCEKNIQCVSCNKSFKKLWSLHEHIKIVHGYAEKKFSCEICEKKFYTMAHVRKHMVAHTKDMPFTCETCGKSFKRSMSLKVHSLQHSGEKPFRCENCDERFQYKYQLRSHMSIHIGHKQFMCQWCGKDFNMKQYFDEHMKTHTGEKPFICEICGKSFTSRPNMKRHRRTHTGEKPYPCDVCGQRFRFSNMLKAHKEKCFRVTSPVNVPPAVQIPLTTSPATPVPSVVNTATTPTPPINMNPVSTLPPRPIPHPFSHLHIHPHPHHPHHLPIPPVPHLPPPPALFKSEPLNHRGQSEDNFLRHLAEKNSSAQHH

How the values were obtained:
Test in all cases: log2 fold change, soluble protein after heating vs DMSO (PISA); higher = thermal stabilisation; K562 lysate, 10 uM; active = over 0.2 and 3.5 SD of the protein, either way, in both replicates (recomputed)
[1] = compound: CCCS(=O)(=O)Nc1ccc(F)c(C(=O)c2c[nH]c3ncc(Cl)cc23)c1F
In short: (§1)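 Dounce homogenisation of K562 pellets in PBS pH 7.4 with 1 mM MgCl2 produced a crude extract, used at 1 mg/mL protein. Exposure to 10 μM compound lasted 30 min, and aliquots were then heated for 3 min across 48°C-58°C, pooled and brought to 0.5% NP-40 at 4°C. The supernatant after 21,000xg for 90 min was quantified by TMTpro 16plex LC-MS/MS with channel sums equalised. Duplicate values are given as log-two fold change in thermal stability relative to solvent controls.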

volasertib = compound: CC[C@@H]1C(=O)N(C)c2cnc(Nc3ccc(C(=O)N[C@H]4CC[C@H](N5CCN(CC6CC6)CC5)CC4)cc3OC)nc2N1C(C)C [volasertib]
In short: as §1

[2] = compound: CCn1c(C(=O)N(C2CC2)C2CC2)cc2c3c(ncn3C)c(Nc3cc(C)n(C)n3)nc21
In short: as §1

[3] = compound: CCn1cc(-c2ccnc3[nH]c(-c4cccc(CN(C)C)c4)cc23)c(-c2ccc(NC(=O)N(C)C)cc2)n1
In short: as §1

[4] = compound: CN1CCC(CNc2ccc3ncc(-c4cccc(OC(F)(F)F)c4)n3n2)CC1
In short: as §1

alvocidib = compound: CN1CC[C@H](c2c(O)cc(O)c3c(=O)cc(-c4ccccc4Cl)oc23)[C@H](O)C1 [alvocidib]
In short: as §1

Tubastatin A = compound: CN1CCc2c(c3ccccc3n2Cc2ccc(C(=O)NO)cc2)C1 [Tubastatin A]
In short: as §1

[5] = compound: COc1cc2nc(-c3cc(F)ccc3O)nc(N[C@@H]3CNC[C@H]3C(C)(C)O)c2cc1OC
In short: as §1

barasertib = compound: CCN(CCCOc1ccc2c(Nc3cc(CC(=O)Nc4cccc(F)c4)[nH]n3)ncnc2c1)CCOP(=O)(O)O [barasertib]
In short: as §1

[6] = compound: CC[C@@H]1C(=O)N(C)c2cnc(Nc3ccc(C(=O)NC4CCN(C)CC4)cc3OC)nc2N1C1CCCC1
In short: as §1

[7] = compound: CNC(=O)C1=CC=CC=C1NC2=NC(=NC=C2Cl)NC3=C(C=C(C=C3)N4CCOCC4)OC
In short: as §1

encorafenib = compound: COC(=O)N[C@@H](C)CNc1nccc(-c2cn(C(C)C)nc2-c2cc(Cl)cc(NS(C)(=O)=O)c2F)n1 [encorafenib]
In short: as §1

[8] = compound: COC(=O)[C@H](CCSC)NC(=O)C1=C(C=C(C=C1)NC[C@H](CS)N)C2=CC=CC=C2
In short: as §1

alisertib = compound: COc1cc(Nc2ncc3c(n2)-c2ccc(Cl)cc2C(c2c(F)cccc2OC)=NC3)ccc1C(=O)O [alisertib]
In short: as §1

gefitinib = compound: COc1cc2ncnc(Nc3ccc(F)c(Cl)c3)c2cc1OCCCN1CCOCC1 [gefitinib]
In short: as §1

sotrastaurin = compound: CN1CCN(c2nc(C3=C(c4c[nH]c5ccccc45)C(=O)NC3=O)c3ccccc3n2)CC1 [sotrastaurin]
In short: as §1

vemurafenib = compound: CCCS(=O)(=O)Nc1ccc(F)c(C(=O)c2c[nH]c3ncc(-c4ccc(Cl)cc4)cc23)c1F [vemurafenib]
In short: as §1

saracatinib = compound: CN1CCN(CCOc2cc(OC3CCOCC3)c3c(Nc4c(Cl)ccc5c4OCO5)ncnc3c2)CC1 [saracatinib]
In short: as §1

defactinib = compound: CNC(=O)c1ccc(Nc2ncc(C(F)(F)F)c(NCc3nccnc3N(C)S(C)(=O)=O)n2)cc1 [defactinib]
In short: as §1

[9] = compound: CNc1nc(-c2ccc3c(N)n[nH]c3c2)cc(N2C[C@@H](C(=O)NC3CCCCC3)CC[C@H]2C)n1
In short: as §1

Measured: log2 fold change

ZNF280D (UniProt Q6N043)
inactive: [1] 0.199 | volasertib -0.005 | [2] 0.282 | [3] 0.014 | [4] 0.13 | alvocidib 0.013 | Tubastatin A -0.146 | [5] -0.099

ZNHIT1 (UniProt O43257)
inactive: barasertib -0.116 | [6] -0.038 | [2] -0.024 | Tubastatin A 0.182 | [7] 0.087 | encorafenib 0.308 | [8] -0.283 | alisertib -0.05 | gefitinib -0.009

ZNF574 isoform 2 (UniProt Q6ZN55)
inactive: [1] -0.031 | barasertib 0.062 | [6] 0.226 | volasertib -0.055 | [2] 0.029 | [3] -0.128 | [4] -0.002 | sotrastaurin 0.059 | alvocidib -0.024 | Tubastatin A 0.034 | [7] -0.026 | encorafenib 0.101 | [8] 0.094 | alisertib 0.006 | [5] 0.105 | gefitinib 0.021

ZNF668 isoform 2 (UniProt Q96K58)
inactive: [1] 0.013 | volasertib -0.018 | sotrastaurin -0.053 | [7] 0.081 | alisertib 0.015 | [5] 0.002 | gefitinib -0.166

ZNF639 (UniProt Q9UID6)
inactive: vemurafenib -0.051 | [2] -0.047 | [3] 0.106 | [4] -0.198 | saracatinib -0.026 | sotrastaurin 0.046 | alvocidib 0.005 | Tubastatin A 0.081 | [7] 0.007 | defactinib -0.017 | [9] -0.119 | alisertib -0.053 | gefitinib 0.053

ZNF324 (UniProt O75467)
inactive: [1] 0.058 | volasertib -0.167 | [2] -0.065 | [3] 0.026 | [4] 0.045 | sotrastaurin 0.091 | alvocidib -0.053 | Tubastatin A 0.045 | alisertib 0.003 | [5] -0.084 | gefitinib -0.129

ZNF76 (UniProt P36508)
inactive: vemurafenib -0.073 | sotrastaurin -0.015 | [7] 0.082 | defactinib 0.037

ZSWIM7 (UniProt Q19AV6)
inactive: vemurafenib 0.021 | [2] 0.06 | [3] 0.142 | [4] -0.009 | saracatinib 0.124 | alvocidib -0.128 | Tubastatin A 0.163 | [7] 0.08 | defactinib -0.024 | [9] 0

ZNF384 (UniProt Q8TF68)
inactive: [1] 0.098 | [6] 0.161 | volasertib -0.234 | [2] 0.16 | saracatinib 0.218 | sotrastaurin 0.049 | Tubastatin A 0.001 | [7] 0.063 | [9] 0.224 | encorafenib -0.221 | [8] 0.085 | alisertib -0.069 | [5] -0.177 | gefitinib -0.056

ZNF326 (UniProt Q5BKZ1)
inactive: vemurafenib 0.053 | [6] 0.004 | [2] 0.002 | [3] 0.052 | [4] 0.038 | saracatinib 0.026 | sotrastaurin 0 | alvocidib -0.013 | Tubastatin A -0.082 | [7] 0.009 | defactinib -0.023 | [9] -0.013 | encorafenib 0.017 | [8] -0.042 | alisertib 0.089 | gefitinib 0.038

ZNF77 (UniProt Q15935)
inactive: vemurafenib 0.109 | [6] -0.062 | defactinib -0.034 | encorafenib 0.094 | [8] 0.226

ZNF8 (UniProt P17098)
inactive: vemurafenib -0.071 | barasertib 0.287 | [2] 0.021 | [3] 0.026 | [4] -0.061 | saracatinib 0.057 | sotrastaurin -0.232 | alvocidib -0.104 | Tubastatin A -0.086 | [7] 0.148 | defactinib 0.067 | [9] -0.059 | alisertib -0.022 | gefitinib 0.246

ZNF655 isoform 2 (UniProt Q8N720)
inactive: vemurafenib -0.129 | [3] 0.007 | [4] 0.1 | alvocidib 0.02 | defactinib 0.061

ZNF358 (UniProt Q9NW07)
inactive: [1] 0.052 | volasertib -0.085 | [7] -0.127 | [5] 0.005

ZNF512B (UniProt Q96KM6)
inactive: [1] -0.015 | volasertib -0.051 | [2] 0.001 | Tubastatin A -0.049 | [5] 0.032

ZNF800 (UniProt Q2TB10)
inactive: [1] 0.102 | volasertib -0.078 | saracatinib 0.052 | [7] 0.077 | [9] 0.079 | [5] -0.126

Quoted at random: two entries already listed, in no set order.
ZNF324 (UniProt O75467)
inactive: [1] 0.058 | volasertib -0.167 | [2] -0.065 | [3] 0.026 | [4] 0.045 | sotrastaurin 0.091 | alvocidib -0.053 | Tubastatin A 0.045 | alisertib 0.003 | [5] -0.084 | gefitinib -0.129

ZNF77 (UniProt Q15935)
inactive: vemurafenib 0.109 | [6] -0.062 | defactinib -0.034 | encorafenib 0.094 | [8] 0.226

Remaining list, next part.

ZNF687 (UniProt Q8N1G0)
inactive: [1] 0.183 | [6] 0.056 | volasertib 0.042 | [2] 0.022 | saracatinib -0.165 | sotrastaurin 0.068 | Tubastatin A -0.171 | [7] 0.016 | [9] -0.084 | encorafenib 0.122 | [8] 0.035 | alisertib 0.044 | [5] -0.125 | gefitinib 0.039

ZNF440 (UniProt Q8IYI8)
inactive: alisertib -0.038 | gefitinib 0.042

ZNF770 (UniProt Q6IQ21)
inactive: sotrastaurin 0.089

ZNF526 (UniProt Q8TF50)
inactive: [2] -0.048 | [3] 0.118 | [4] -0.142 | saracatinib 0.044 | alvocidib 0.005 | Tubastatin A -0.002 | [7] 0.036 | [9] 0.114 | alisertib 0.081 | gefitinib 0.021

ZNF627 (UniProt Q7L945)
inactive: barasertib -0.241 | [3] -0.155 | [4] -0.014 | sotrastaurin 0.061 | alvocidib -0.01 | [7] 0.265

ZNF816 (UniProt Q0VGE8)
inactive: [2] 0.034 | sotrastaurin -0.167 | Tubastatin A -0.133 | alisertib -0.056 | gefitinib 0.131

ZNF414 isoform 2 (UniProt Q96IQ9)
inactive: [6] 0.117 | [2] 0.238 | [3] -0.052 | [4] -0.014 | sotrastaurin -0.09 | alvocidib 0.012 | Tubastatin A -0.069 | encorafenib -0.1 | [8] -0.065

ZNF281 (UniProt Q9Y2X9)
inactive: [2] 0.011 | saracatinib -0.069 | sotrastaurin 0.028 | Tubastatin A -0.16 | [7] 0.025 | [9] 0.095

ZNF391 (UniProt Q9UJN7)
inactive: [6] 0.346 | encorafenib -0.164 | [8] 0.234

ZNF652 (UniProt Q9Y2D9)
inactive: sotrastaurin -0.034

ZNF485 (UniProt Q8NCK3)
inactive: [2] -0.037 | Tubastatin A 0.137
